Laboratory results published in publication PMC13385800 (2026).
No constants are given. Whether binding was seen depends on the method and setting. Binding seen in cells or lysates may run through a third protein.

The chains behind the UniProt entries cited, without tags or fusion partners.
UniProt O15379: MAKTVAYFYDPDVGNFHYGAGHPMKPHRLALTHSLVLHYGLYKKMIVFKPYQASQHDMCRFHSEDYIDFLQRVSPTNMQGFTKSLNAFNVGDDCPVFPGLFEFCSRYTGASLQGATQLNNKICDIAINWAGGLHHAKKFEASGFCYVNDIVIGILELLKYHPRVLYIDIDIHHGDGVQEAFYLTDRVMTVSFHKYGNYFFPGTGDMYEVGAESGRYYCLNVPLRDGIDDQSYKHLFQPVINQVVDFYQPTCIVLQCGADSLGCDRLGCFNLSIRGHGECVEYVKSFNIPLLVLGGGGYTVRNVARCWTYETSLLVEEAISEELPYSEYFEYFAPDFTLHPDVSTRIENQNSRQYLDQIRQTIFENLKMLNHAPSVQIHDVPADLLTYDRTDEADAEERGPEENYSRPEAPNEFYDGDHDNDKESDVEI

What was measured:
mCherry-SETD5 1–486 = target: T1, mCherry-SETD5 1–486 (UniProt Q9C0A6); assay: co-IP; GFP trap or RFP trap IP of transfected EGFP- or mCherry-tagged constructs from extracts of Flp-In T-REx 293 lines carrying integrated wild-type or mutant TBLR1; 30-60 min at 4 degrees, four washes in NE10 with 150 mM NaCl; western blot
T1 sequence: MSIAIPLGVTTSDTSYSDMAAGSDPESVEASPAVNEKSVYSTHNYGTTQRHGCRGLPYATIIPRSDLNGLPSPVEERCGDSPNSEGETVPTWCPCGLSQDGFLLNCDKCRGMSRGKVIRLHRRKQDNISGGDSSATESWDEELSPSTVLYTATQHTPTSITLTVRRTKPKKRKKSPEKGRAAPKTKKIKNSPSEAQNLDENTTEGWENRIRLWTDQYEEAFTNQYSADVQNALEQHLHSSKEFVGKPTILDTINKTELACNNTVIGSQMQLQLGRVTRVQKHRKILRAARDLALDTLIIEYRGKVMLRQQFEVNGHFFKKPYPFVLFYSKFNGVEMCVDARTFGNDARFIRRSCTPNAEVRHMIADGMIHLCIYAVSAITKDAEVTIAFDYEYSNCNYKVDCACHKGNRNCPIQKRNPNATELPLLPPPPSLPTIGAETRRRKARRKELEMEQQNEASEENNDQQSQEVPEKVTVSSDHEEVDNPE

mCherry-SETD5 1–223 = target: T2, mCherry-SETD5 1–223 (UniProt Q9C0A6); assay: as above
T2 sequence: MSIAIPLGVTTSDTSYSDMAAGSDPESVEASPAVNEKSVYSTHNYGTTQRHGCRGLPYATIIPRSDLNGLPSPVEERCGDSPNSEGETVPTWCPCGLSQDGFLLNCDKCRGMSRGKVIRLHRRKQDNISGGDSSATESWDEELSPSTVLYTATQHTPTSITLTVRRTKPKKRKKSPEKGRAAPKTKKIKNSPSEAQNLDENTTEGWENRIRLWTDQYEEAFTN

binding (mCherry-SETD5 1–486): no binding
binding (mCherry-SETD5 1–223): no binding
Substance: endogenous HDAC3 of Flp-In T-REx 293 cells (from UniProt O15379 1-428)
